Reference: patent US20190203212A1, “INDUCIBLE DNA BINDING PROTEINS AND GENOME PERTURBATION TOOLS AND APPLICATIONS THEREOF” (Massachusetts Institute of Technology, priority 2013, published 2019)
Some entries share one result that the patent states for a list of compounds.

Tested on: mouse (Mus musculus) p11 (s100a10) gene
Experiment: TALE repressor architectures on endogenous p11 in Neuro2A cells
Format: cell-based

With “SID4X: tandem repeat of four SID domains linked by short peptide linkers, fused to p11-targeting TALE” the “repression of endogenous p11 expression” value was “up to 4.8 folds”.
